{
  "source": "patent US9775859B2",
  "about": "“Methods and compositions for preventing and treating a disease related to glycan dysregulation” (Sinai Health System, priority 2005, dated 2017)",
  "tested_on": "Jurkat T-cells",
  "assay": "L-PHA-FITC staining of Jurkat T cells cultured 3 days with monosaccharides, metabolites, Vitamin D3 or glycosidase inhibitors, FACS",
  "format": "cell-based, human",
  "procedure": "Mice used for L-PHA staining and quantitative RT-PCR were sex and age matched. […] 129/Sv mice were from an original Mgat5 gene targeted population (28). All other mice (SJL, NOD, Balb/c and B10.S) were obtained from Jackson Laboratories. […] Mouse and Jurkat cells were stained with L-PHA and LEA by first blocking with PBA (2% bovine serum albumin/0.01% azide/PBS) for 10 min at 4° C. and then incubated with 4 μg/ml of L-PHA-FITC (Vector Laboratories Inc.) or 20 μg/ml of LEA-FITC (Sigma) in PBA for 40 min at 4° C. and analyzed by a BD FACSCalihur (BD Pharmingen, San Diego, Calif.). The level of lectin binding was normalized by untreated control and calculated as a percentage (Sample intensity/control intensity-1) %.\nMice used for L-PHA staining and quantitative RT-PCR were sex and age matched. […] 129/Sv mice were from the original Mgat5 gene targeted population (28). All other mice (SJL, NOD, Balb/c and B10.S) were obtained from Jackson Laboratories. Mouse cells were stained with anti-CD4 (RM4-5), anti-CD8 (53-6.7), anti-CD45R (RA3-6B2) from eBioscience, and L-PHA (4 μg/ml) and LEA (20 μg/ml) from Sigma. […] Jurkat T-cells were cultured in either glutamine free RPMI 1640, 10% FBS, 10 mM/20 mM glucose or glucose/glutamine free DMEM base media supplemented with 10% FBS, 1.5 mM glucose. […]",
  "note": "Some entries share one result that the patent states for a list of compounds. At least one compound was matched to its structure with a doubt left.",
  "data": [
    {"smiles": "CC(=O)N[C@H]1C(OC(C)=O)O[C@H](COC(C)=O)[C@@H](OC(C)=O)[C@@H]1OC(C)=O", "note": "(stereo partly shown) [GlcNAc-tetra-acetate]", "values": [
      {"measurement": "concentration to increase Mgat5 glycan expression, fold lower than GlcNAc and uridine", "value": "100-1000 fold"}
    ]}
  ]
}
